PMC9022998
Results are given in words; binding and its absence hold for the method and conditions named. In cells and extracts the contact can be indirect. Some results given as binding are weak or reduced against the parent protein; the word gives no strength. Tags and fused reporters may be left off the sequences shown.

Chains of the proteins cited; added tags and fusions are not shown. Lines headed by an entry give the natural chain unless they say otherwise; changes in a name come on top. A line that says so, or that is headed by a name, gives the form on record, which may keep a tag or linker. Residues count along the entry.
α1-antitrypsin (AAT), wild type, C-terminally FLAG-tagged (P01009, residues 25-418): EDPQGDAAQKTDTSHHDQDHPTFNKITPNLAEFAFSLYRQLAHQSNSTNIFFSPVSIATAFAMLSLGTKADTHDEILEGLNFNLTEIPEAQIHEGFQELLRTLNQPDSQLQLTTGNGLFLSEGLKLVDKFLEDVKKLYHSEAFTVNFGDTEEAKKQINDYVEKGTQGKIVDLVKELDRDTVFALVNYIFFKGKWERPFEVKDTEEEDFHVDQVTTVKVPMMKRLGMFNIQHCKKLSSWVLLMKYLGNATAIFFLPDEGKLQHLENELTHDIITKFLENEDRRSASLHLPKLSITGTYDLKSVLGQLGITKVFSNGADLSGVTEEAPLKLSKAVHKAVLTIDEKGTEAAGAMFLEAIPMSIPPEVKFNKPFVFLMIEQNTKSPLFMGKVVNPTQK
α1-antitrypsin (AAT) N70Q mutant, C-terminally FLAG-tagged (P01009, form named): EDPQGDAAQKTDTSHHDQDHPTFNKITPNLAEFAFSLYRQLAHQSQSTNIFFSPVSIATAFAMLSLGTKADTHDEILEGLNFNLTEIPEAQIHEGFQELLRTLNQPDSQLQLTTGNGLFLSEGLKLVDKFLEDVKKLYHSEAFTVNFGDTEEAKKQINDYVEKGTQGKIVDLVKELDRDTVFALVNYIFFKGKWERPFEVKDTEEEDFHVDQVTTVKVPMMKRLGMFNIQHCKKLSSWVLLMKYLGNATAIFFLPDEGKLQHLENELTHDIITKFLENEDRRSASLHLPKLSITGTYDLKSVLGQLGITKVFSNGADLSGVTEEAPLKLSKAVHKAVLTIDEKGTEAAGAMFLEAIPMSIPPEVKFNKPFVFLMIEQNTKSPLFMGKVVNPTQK
α1-antitrypsin (AAT) N271Q mutant, C-terminally FLAG-tagged (P01009, form named): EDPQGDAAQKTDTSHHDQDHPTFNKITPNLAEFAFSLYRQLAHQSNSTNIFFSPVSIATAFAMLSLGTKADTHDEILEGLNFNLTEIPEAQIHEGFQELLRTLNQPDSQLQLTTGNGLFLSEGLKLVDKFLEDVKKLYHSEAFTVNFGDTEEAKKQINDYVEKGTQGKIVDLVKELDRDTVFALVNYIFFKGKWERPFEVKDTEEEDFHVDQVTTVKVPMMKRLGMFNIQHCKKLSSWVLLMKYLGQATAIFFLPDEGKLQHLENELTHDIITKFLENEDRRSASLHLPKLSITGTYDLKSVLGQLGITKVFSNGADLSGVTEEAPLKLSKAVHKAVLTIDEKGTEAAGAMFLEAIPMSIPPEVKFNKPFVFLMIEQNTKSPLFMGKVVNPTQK

T1: LMAN1, Myc-tagged (UniProt P49257)
T1 sequence: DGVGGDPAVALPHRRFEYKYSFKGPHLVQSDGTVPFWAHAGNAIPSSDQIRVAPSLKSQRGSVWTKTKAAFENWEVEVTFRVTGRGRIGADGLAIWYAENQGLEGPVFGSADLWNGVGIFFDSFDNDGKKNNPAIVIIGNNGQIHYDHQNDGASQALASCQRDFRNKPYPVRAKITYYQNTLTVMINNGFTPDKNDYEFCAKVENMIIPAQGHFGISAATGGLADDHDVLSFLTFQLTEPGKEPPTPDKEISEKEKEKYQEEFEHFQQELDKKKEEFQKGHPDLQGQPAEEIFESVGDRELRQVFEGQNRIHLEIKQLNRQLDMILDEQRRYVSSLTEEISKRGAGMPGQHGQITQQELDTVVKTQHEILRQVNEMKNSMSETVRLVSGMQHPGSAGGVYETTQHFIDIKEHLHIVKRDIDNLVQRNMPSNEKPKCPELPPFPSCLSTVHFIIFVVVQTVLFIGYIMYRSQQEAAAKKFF

B1: LMAN1, Myc-tagged (protein, UniProt P49257 31-510)
chain: T1 sequence

Assays:
LMAN1, Myc-tagged = molecular target: T1, LMAN1, Myc-tagged; experiment: co-IP; FLAG-tagged AAT and Myc-tagged LMAN1 co-expressed in WT and MCFD2 KO 293T cells, also in MCFD2 KO cells stably expressing WT MCFD2 or MCFD2 D129E; lysis in 50 mM Tris-HCl pH 7.5, 150 mM NaCl, 1% Nonidet P-40, 0.05% SDS, 2 mM CaCl2; immunoprecipitation with anti-AAT, anti-FLAG or anti-Myc antibody, immunoblotting
[1] = molecular target: α1-antitrypsin (AAT), wild type, C-terminally FLAG-tagged (human) (UniProt P01009); experiment: as above

Molecule	binding (LMAN1, Myc-tagged)	binding [1]
α1-antitrypsin (AAT) N70Q mutant, C-terminally FLAG-tagged (from UniProt P01009 25-418)	binds	
α1-antitrypsin (AAT) N271Q mutant, C-terminally FLAG-tagged (from UniProt P01009 25-418)	binds	
α1-antitrypsin (AAT), wild type, C-terminally FLAG-tagged (from UniProt P01009 25-418)	binds	
B1		binds
